Experimental data published in PubChem BioAssay AID210 (DTP/NCI, 2004).
The list is a part of this screen's results and no random one: it gathers tests that were run many times, whatever their T/C, doses with no T/C, and many T/C values between a quarter and a half above the control. Other doses and runs of a compound stand elsewhere. T/C is the treated group as % of the vehicle group. Some doses have a count of surviving animals in place of a T/C: the source files T/C as zero there, which appears to mark a toxic dose or a test without result, not a measured value. Some survivor counts are full or nearly so, which does not show that the dose was tolerated: survival well below the control is almost never listed, so the zero probably covers shortened survival too. Survivors were counted at the toxicity check, usually on the fifth day, unless a day is given; later deaths do not show. Schedules are NCI's codes, read here as Q, the interval in days (D) or hours (H), X, the number of doses. For survival time, this PubChem deposit counts one and a half times the control or more as active, and values a quarter to a half above the control carry no call in these data; other NCI protocols may use other cut-offs. *1 amine or outer side, *2 acyl side, *3 side chain or, on linkers, in order; H or OH if unused. Where a SMILES comes first, the peptide text is derived from it. Bridges are numbered along the chain shown (N, C = ends). Roman numbers before positions name the chains, in order. [ ]: non-standard residue; d: D form. Actinocin(9to1) = Cc1c2oc3c(C)ccc(C(=O)[*:1])c3nc-2c(C(=O)[*:2])c(N)c1=O; NMeV = CN[CH](C(=O)O)C(C)C; Aze = O=C(O)[CH]1CCN1; Sar = CNCC(=O)O

System: CD2F1 mice, ip Colon 26 adenocarcinoma, median survival T/C
Test: NCI In Vivo Anticancer Drug Screen. Data for tumor model Colon 26 Adenocarcinoma (intraperitoneal) in CD2F1 (CDF1) mice
Settings: T/C endpoint: median survival time, higher T/C = longer survival
Method: The antitumor activity of compounds was measured in mice bearing transplantable tumors. Survival or tumor size were measured and the results are expressed as the measurement made in the treated group (T) divided by the measurement made in the vehicle treated control group (C). The tumor model used in this assay is Colon 26 Adenocarcinoma (intraperitoneal) in CD2F1 (CDF1) mice

[1] = dose: 64.0 mg/kg/injection, schedule: Q04DX002 (ip), vehicle: Klucel (hydroxypropylcellulose) (HPC)
[2] = dose: 1024.0 mg/kg/injection, schedule: Q04DX002 (ip), vehicle: Klucel (hydroxypropylcellulose) (HPC)

`C=CCCC(=O)CCCC(=O)O[C@@H]1[C@@H]2[C@H](CC1(C)C)[C@H](O)[C@@]13O[C@@H]1[C@H](O)[C@@]1(CO1)[C@@]23C` was tested. Which T/C (dose: 6.25 micrograms/kg/injection, schedule: Q04DX002 (ip), vehicle: Klucel (hydroxypropylcellulose) (HPC)) did it give?
The T/C was 125 % of control.

What about the T/C (dose: 12.5 micrograms/kg/injection, schedule: Q04DX002 (ip), vehicle: Klucel (hydroxypropylcellulose) (HPC), evaluated on day 60) of the same compound?
The T/C was 148 % of control.

And the T/C (dose: 12.5 micrograms/kg/injection, schedule: Q04DX002 (ip), vehicle: Klucel (hydroxypropylcellulose) (HPC), evaluated on day 120)?
Its T/C is 144 % of control.

And the T/C (dose: 100.0 micrograms/kg/injection, schedule: Q04DX002 (ip), vehicle: Klucel (hydroxypropylcellulose) (HPC))?
Its T/C is 134 % of control.

Which T/C (dose: 200.0 mg/kg/injection, schedule: Q04DX003 (ip), vehicle: carboxymethylcellulose (CMC)) does the source give for `CN(C)/N=N/c1nc[nH]c1C(N)=O` here?
The T/C was 136 % of control.

What does the source list for `COc1ccc2c(c1O)-c1cccc3c1[C@@H](C2)N(CCCl)CC3`?
survivor count [1]: 8 of 10; survivor count (dose: 128.0 mg/kg/injection, schedule: Q04DX002 (ip), vehicle: Klucel (hydroxypropylcellulose) (HPC)): 2 of 10

How did the survivor count (dose: 80.0 mg/kg/injection, schedule: Q04DX003 (ip), vehicle: saline with Tween-80) turn out when `COc1cc2c3cc1Oc1c(O)c(OC)cc4c1[C@H](Cc1ccc(cc1)Oc1cc(ccc1O)C[C@H]3N(C)CC2)N(C)CC4` was run?
Its survivor count is 10 of 10.

And the survivor count (dose: 160.0 mg/kg/injection, schedule: Q04DX003 (ip), vehicle: saline with Tween-80)?
Its survivor count is 10 of 10.

`CCc1c(CC(=O)O)c2cc(C)ccc2n1Cc1ccc(Cl)cc1` was tested. Which survivor count (dose: 200.0 mg/kg/injection, schedule: Q04DX003 (ip), vehicle: Klucel (hydroxypropylcellulose) (HPC)) did it give?
Its survivor count is 10 of 10.

Which results are given for `C=C1C(=O)C23C(O)CC4C5(C)CCCC4(C(O)OC5)C2C(OC(C)=O)CC1C3O` (stereo not drawn)?
survivor count (dose: 128.0 mg/kg/injection, schedule: Q04DX002 (ip), vehicle: saline with Tween-80): 9 of 10; survivor count (dose: 256.0 mg/kg/injection, schedule: Q04DX002 (ip), vehicle: saline with Tween-80): 5 of 10

How did the survivor count [2] turn out when `Nc1ncnc2nc[nH]c12` was run?
Its survivor count is 5 of 10.

How did the survivor count (dose: 1.5 mg/kg/injection, schedule: Q04DX003 (ip), vehicle: distilled water + alcohol) turn out when `C=C(C)[C@]12CC(C)C34OC(/C=C\C=C\CCCCCCCCC)(O[C@@H]1[C@@H]3[C@@H]1O[C@]1(CO)[C@@H](O)[C@]1(O)C(=O)C(C)=C[C@@H]41)O2` (stereo partly drawn) was run?
Its survivor count is 5 of 10.

What about the survivor count (dose: 3.0 mg/kg/injection, schedule: Q04DX003 (ip), vehicle: distilled water + alcohol) of the same compound?
Its survivor count is 0 of 10.

And the survivor count (dose: 6.0 mg/kg/injection, schedule: Q04DX003 (ip), vehicle: distilled water + alcohol)?
The survivor count was 0 of 10.

How did the survivor count (dose: 512.0 mg/kg/injection, schedule: Q04DX002 (ip), vehicle: Klucel (hydroxypropylcellulose) (HPC)) turn out when `Cc1c[nH]c(=O)[nH]c1=O` was run?
The survivor count was 10 of 10.

And the survivor count [2]?
Its survivor count is 10 of 10.

Which results are given for `NNC(=O)c1ccncc1`?
survivor count (dose: 288.0 mg/kg/injection, schedule: Q04DX002 (ip), vehicle: saline): 5 of 10; survivor count (dose: 576.0 mg/kg/injection, schedule: Q04DX002 (ip), vehicle: saline): 0 of 10; survivor count (dose: 1152.0 mg/kg/injection, schedule: Q04DX002 (ip), vehicle: saline): 0 of 10

Which survivor count (dose: 30.0 mg/kg/injection, schedule: Q07DX003 (ip), vehicle: sodium bicarbonate) does the source give for `CN(Cc1cnc2nc(N)nc(N)c2n1)c1ccc(C(=O)N[C@@H](CCC(=O)O)C(=O)O)cc1` here?
Its survivor count is 10 of 10.

What about the survivor count (dose: 63.0 mg/kg/injection, schedule: Q07DX003 (ip), vehicle: sodium bicarbonate) of the same compound?
Its survivor count is 9 of 10.

And the survivor count (dose: 90.0 mg/kg/injection, schedule: Q07DX003 (ip), vehicle: saline)?
Its survivor count is 10 of 10.

What about the survivor count (dose: 90.0 mg/kg/injection, schedule: Q07DX003 (ip), vehicle: sodium bicarbonate) of the same compound?
The survivor count was 10 of 10.

How did the survivor count (dose: 250.0 mg/kg/injection, schedule: Q04DX002 (ip), vehicle: saline with Tween-80) turn out when `CC1(C)CC23C4COC(=O)C2CCC1C3CC4=O` (stereo not drawn) was run?
Its survivor count is 7 of 10.

And the survivor count (dose: 288.0 mg/kg/injection, schedule: Q04DX003 (ip), vehicle: DMSO)?
The survivor count was 10 of 10.

What about the survivor count (dose: 400.0 mg/kg/injection, schedule: Q04DX003 (ip), vehicle: DMSO) of the same compound?
The survivor count was 9 of 10.

Which T/C (dose: 450.0 micrograms/kg/injection, schedule: Q04DX003 (ip), vehicle: saline + alcohol) does the source give for `Cc1c2oc3c(C)ccc(C(=O)NC4C(=O)NC(C(C)C)C(=O)N5CCC5C(=O)N(C)CC(=O)N(C)C(C(C)C)C(=O)OC4C)c3nc-2c(C(=O)NC2C(=O)NC(C(C)C)C(=O)N3CCC3C(=O)N(C)CC(=O)N(C)C(C(C)C)C(=O)OC2C)c(N)c1=O` (stereo not drawn) (I: TV[Aze][Sar][NMeV] / II: TV[Aze][Sar][NMeV]; ester I:1-I:C, II:1-II:C; linker I:N-II:N via Actinocin(9to1); configuration not given here) here?
The T/C was 141 % of control.

And the T/C (dose: 750.0 micrograms/kg/injection, schedule: Q04DX003 (ip), vehicle: saline + alcohol)?
Its T/C is 145 % of control.

And the survivor count (dose: 1250.0 micrograms/kg/injection, schedule: Q04DX003 (ip), vehicle: saline + alcohol)?
The survivor count was 8 of 8.

`CCOC(=O)CNC(=O)CCCCSc1ncnc2nc[nH]c12` was tested. Which survivor count (dose: 3200.0 mg/kg/injection, schedule: Q04DX003 (ip), vehicle: saline with Tween-80) did it give?
Its survivor count is 4 of 10.

For `COc1cccc2c1C(=O)c1c(O)c3c(c(O)c1C2=O)C[C@@](O)(C(=O)COC(=O)c1cccnc1)C[C@@H]3OC1CC(N)C(O)C(C)O1` (stereo partly drawn), which survivor count (dose: 39.0 mg/kg/injection, schedule: Q07DX002 (iv), vehicle: alkali diluted with saline) is on record?
Its survivor count is 4 of 10.

Which results are given for `COc1ccc2c(c1)CCC(c1ccccc1)=C2c1ccc(OCCN2CCCC2)cc1`?
survivor count (dose: 50.0 mg/kg/injection, schedule: Q01DX009 (ip), vehicle: saline): 10 of 10; survivor count (dose: 100.0 mg/kg/injection, schedule: Q01DX009 (ip), vehicle: saline): 3 of 10

Which T/C (dose: 100.0 mg/kg/injection, schedule: Q04DX003 (ip), vehicle: saline with Tween-80) does the source give for `C=C/C(C)=C/[C@H](C)C(=O)C[C@H](O)CC1CC(=O)NC(=O)C1` here?
Its T/C is 127 % of control.

How did the survivor count (dose: 54.0 mg/kg/injection, schedule: Q06HX018 (ip), vehicle: saline) turn out when `CN(C)C(=O)c1cccc(COc2ccc(N3C(N)=NC(N)=NC3(C)C)cc2Cl)c1` was run?
Its survivor count is 3 of 10.

Which T/C (dose: 20.0 mg/kg/injection, schedule: Q04DX003 (ip), vehicle: carboxymethylcellulose (CMC)) does the source give for `O=NN(CCCl)C(=O)NC1CCCCC1` here?
The T/C was 130 % of control.

And the survivor count (dose: 160.0 mg/kg/injection, schedule: Q04DX003 (ip), vehicle: carboxymethylcellulose (CMC))?
The survivor count was 10 of 10.

`CCOC(=O)Nc1cc2c(c(N)n1)N=C(CN(C)c1ccccc1)CN2` was tested. Which T/C (dose: 3.12 mg/kg/injection, schedule: Q04DX003 (ip), vehicle: Klucel (hydroxypropylcellulose) (HPC)) did it give?
The T/C was 137 % of control.

And the T/C (dose: 12.5 mg/kg/injection, schedule: Q04DX003 (ip), vehicle: Klucel (hydroxypropylcellulose) (HPC))?
The T/C was 125 % of control.

What about the survivor count (dose: 100.0 mg/kg/injection, schedule: Q04DX003 (ip), vehicle: Klucel (hydroxypropylcellulose) (HPC)) of the same compound?
Its survivor count is 10 of 10.

What does the source list for `NC(Cc1ccc(N(CCCl)CCCl)cc1)C(=O)O` (stereo not drawn)?
survivor count (dose: 32.0 mg/kg/injection, schedule: Q04DX002 (ip), vehicle: Klucel (hydroxypropylcellulose) (HPC)): 9 of 10; survivor count [1]: 10 of 10

How did the T/C (dose: 4.0 mg/kg/injection, schedule: Q04DX002 (ip), vehicle: water) turn out when `CCC1(O)CC2CN(CCc3c([nH]c4ccccc34)C(C(=O)OC)(c3cc4c(cc3OC)N(C)C3C(O)(C(N)=O)C(O)C5(CC)C=CCN6CCC43C65)C2)C1` (stereo not drawn) (tested in a mixture with another compound) was run?
Its T/C is 125 % of control.

How did the survivor count (dose: 26.0 mg/kg/injection, schedule: Q07DX003 (iv), vehicle: water) turn out when `CC[C@@]1(O)C[C@H](OC2CC(N(C)C)C(OC3CC(O)C(OC4CCC(=O)C(C)O4)C(C)O3)C(C)O2)c2c(cc3c(c2O)C(=O)c2c(O)cccc2C3=O)[C@H]1C(=O)OC` (stereo partly drawn) was run?
Its survivor count is 10 of 10.

For `Cc1ccc(S(=O)(=O)N/N=C/C(=O)O)cc1`, which survivor count (dose: 400.0 mg/kg/injection, schedule: Q04DX003 (ip), vehicle: saline with Tween-80) is on record?
The survivor count was 4 of 10.

How did the survivor count (dose: 8.0 mg/kg/injection, schedule: Q04DX003 (ip), vehicle: Klucel (hydroxypropylcellulose) (HPC)) turn out when `Nc1ncnc2c1ccn2C1OC(CO)C(O)C1O` (stereo not drawn) was run?
The survivor count was 5 of 10.

And the survivor count (dose: 16.0 mg/kg/injection, schedule: Q04DX003 (ip), vehicle: Klucel (hydroxypropylcellulose) (HPC))?
The survivor count was 0 of 10.

Which results are given for `OC(C1CO1)C(O)C1CO1` (stereo not drawn)?
T/C (dose: 2.0 mg/kg/injection, schedule: Q04DX003 (ip), vehicle: saline): 125 % of control; T/C (dose: 4.0 mg/kg/injection, schedule: Q04DX003 (ip), vehicle: saline): 144 % of control; T/C (dose: 4.8 mg/kg/injection, schedule: Q07DX003 (iv), vehicle: saline): 137 % of control; survivor count (dose: 16.0 mg/kg/injection, schedule: Q04DX003 (ip), vehicle: saline): 7 of 10
